Test results: US20210403514A1 (NATIONAL INSTITUTE FOR BIOTECHNOLOGY IN THE NEGEV, published 2021)
Results are given in words; binding and its absence hold for the method and conditions named. Some results given as binding are weak or reduced against the parent protein; the word gives no strength. Each block holds one binder with its values, some of them ahead of it.

By UniProt entry, the sequences of proteins in these tests, tags left out. Where a name states a change or a piece, a line headed by the entry shows the natural chain unless it says otherwise. Residues count along the entry.
UniProt P07333, residues 20-512: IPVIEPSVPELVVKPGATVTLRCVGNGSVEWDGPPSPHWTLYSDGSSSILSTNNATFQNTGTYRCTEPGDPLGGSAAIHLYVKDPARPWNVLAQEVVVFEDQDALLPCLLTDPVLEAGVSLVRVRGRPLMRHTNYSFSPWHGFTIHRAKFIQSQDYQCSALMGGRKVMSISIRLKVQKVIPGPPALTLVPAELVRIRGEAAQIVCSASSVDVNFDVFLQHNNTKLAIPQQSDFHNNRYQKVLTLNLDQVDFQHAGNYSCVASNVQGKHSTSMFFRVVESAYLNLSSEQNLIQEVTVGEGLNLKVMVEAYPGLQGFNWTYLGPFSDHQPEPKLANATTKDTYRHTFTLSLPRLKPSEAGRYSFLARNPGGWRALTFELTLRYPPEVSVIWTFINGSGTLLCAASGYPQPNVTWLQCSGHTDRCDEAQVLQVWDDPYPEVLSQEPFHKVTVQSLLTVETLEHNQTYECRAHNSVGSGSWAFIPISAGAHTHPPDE
UniProt P06756: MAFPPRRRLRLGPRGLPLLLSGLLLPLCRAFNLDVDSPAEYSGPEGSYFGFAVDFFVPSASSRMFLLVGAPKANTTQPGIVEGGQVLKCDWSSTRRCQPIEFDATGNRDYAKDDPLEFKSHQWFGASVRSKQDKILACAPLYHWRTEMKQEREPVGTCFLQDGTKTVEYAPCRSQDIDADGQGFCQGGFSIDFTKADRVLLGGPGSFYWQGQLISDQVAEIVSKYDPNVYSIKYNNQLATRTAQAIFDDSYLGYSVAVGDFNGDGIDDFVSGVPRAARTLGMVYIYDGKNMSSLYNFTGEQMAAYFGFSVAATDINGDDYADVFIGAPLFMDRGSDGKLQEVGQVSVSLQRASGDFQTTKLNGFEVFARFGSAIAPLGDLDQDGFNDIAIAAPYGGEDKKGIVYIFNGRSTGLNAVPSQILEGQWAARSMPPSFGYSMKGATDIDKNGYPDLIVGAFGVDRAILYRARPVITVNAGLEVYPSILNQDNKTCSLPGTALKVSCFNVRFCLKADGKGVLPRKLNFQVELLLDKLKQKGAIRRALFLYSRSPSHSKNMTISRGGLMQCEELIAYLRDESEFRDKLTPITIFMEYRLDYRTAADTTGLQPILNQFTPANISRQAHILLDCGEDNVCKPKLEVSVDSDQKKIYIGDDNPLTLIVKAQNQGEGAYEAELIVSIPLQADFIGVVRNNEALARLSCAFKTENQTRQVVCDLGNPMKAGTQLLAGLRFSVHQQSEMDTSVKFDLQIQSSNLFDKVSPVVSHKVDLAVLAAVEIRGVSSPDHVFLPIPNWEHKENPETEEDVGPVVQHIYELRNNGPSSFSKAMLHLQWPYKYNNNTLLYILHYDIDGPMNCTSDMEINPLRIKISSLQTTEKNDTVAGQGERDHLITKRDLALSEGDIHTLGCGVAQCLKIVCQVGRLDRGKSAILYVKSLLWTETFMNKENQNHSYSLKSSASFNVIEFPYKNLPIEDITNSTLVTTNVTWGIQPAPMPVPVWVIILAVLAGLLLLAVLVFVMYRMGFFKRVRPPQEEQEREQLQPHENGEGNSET
UniProt P18084: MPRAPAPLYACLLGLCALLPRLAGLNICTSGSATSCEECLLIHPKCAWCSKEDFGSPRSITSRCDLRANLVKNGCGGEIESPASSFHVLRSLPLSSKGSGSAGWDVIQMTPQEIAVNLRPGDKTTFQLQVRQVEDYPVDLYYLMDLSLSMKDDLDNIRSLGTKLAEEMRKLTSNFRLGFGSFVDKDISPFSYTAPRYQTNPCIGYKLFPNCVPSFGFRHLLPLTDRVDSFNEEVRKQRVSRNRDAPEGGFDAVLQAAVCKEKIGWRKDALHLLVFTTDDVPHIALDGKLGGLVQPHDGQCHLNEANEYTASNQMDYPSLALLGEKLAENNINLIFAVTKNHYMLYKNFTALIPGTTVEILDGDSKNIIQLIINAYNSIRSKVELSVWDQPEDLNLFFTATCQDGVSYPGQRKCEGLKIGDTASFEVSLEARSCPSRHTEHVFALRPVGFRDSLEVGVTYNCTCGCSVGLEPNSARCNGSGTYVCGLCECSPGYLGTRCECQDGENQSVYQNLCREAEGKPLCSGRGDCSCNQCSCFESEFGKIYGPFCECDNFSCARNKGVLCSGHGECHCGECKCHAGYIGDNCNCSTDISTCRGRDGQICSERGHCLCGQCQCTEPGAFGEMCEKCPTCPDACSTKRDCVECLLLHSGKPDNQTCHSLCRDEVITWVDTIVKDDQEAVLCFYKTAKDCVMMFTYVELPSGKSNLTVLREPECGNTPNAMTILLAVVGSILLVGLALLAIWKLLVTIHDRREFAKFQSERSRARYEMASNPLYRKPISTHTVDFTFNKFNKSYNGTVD

Tests used:
[1] = target: soluble Fc conjugated human c-FMS (R&D systems) (human) (UniProt P07333); assay: yeast surface display flow cytometry, 50 nM c-FMS
[2] = target: soluble Fc conjugated human c-FMS (R&D systems) (human) (UniProt P07333); assay: yeast surface display, flow cytometry; 50 nM soluble c-FMS-Fc; values normalized to M-CSFM
[3] = target: T1, soluble human αvβ3 integrin (human, UniProt P06756 31-992; P05106 27-718); assay: yeast surface display flow cytometry
T1 construct: R&D Systems for yeast display; also called integrin αvβ3; recombinant αvβ3 integrin

[4] = target: soluble Fc conjugated human c-FMS (R&D systems) (human) (UniProt P07333); assay: yeast surface display flow cytometry
[5] = target: T1, soluble human αvβ3 integrin; assay: yeast surface display flow cytometry, integrins at 250 nM
[6] = target: T1, soluble human αvβ3 integrin; assay: yeast surface display flow cytometry, 20 nM αvβ3 integrin
[7] = target: T1, soluble human αvβ3 integrin; assay: yeast surface display, flow cytometry; 20 nM soluble αvβ3 integrin; values normalized to the lowest binder
[8] = target: soluble human c-FMS receptor (extracellular domains, residues Met1-Glu512) (Sino Biological) (human) (UniProt P07333); assay: SPR (ProteOn XPR36); variant immobilized by amine coupling, soluble human c-FMS flowed at 12.5 to 200 nM
[9] = target: T1, soluble human αvβ3 integrin; assay: SPR, integrin immobilised, variant at 1 µM as analyte
[10] = target: T1, soluble human αvβ3 integrin; assay: SPR (ProteOn XPR36); variant immobilized by amine coupling, soluble αvβ3 integrin flowed at 12.5 to 200 nM
[11] = target: T2, integrin αvβ5 (human) (UniProt P06756+P18084); assay: SPR, integrin immobilised, variant at 1 µM as analyte; ranked best of the three on αvβ5
[12] = target: T1, soluble human αvβ3 integrin; assay: SPR (ProteOn XPR36); αvβ3 integrin immobilized, variant flowed at 1 µM
[13] = target: T2, integrin αvβ5 (human); assay: SPR (ProteOn XPR36); αvβ5 integrin immobilized, variant flowed at 1 µM

binding [1]: binds
binding [2]: binds
binding [3]: binds
binding [4]: binds
binding [5]: binds
binding [6]: binds
binding [7]: binds
B1: M-CSFRGD variant 4.24 displayed on the yeast surface (designed binder, not shown: large carriers)
chain: EEVSEYCSHMIGSGHLQSLQRLIDSQMETSSQITFEFVDQEQLKDPVCYLKKAFLLVQDIMEDEPVRGDNINPNAIAIVQLQELSLRLKSCFTKDYEEHDKACVRTFYETPLQLLEKVKNVFNETKNLLDKDWNIFSKNCNNSFAECSSQGHERQSEGS

binding [8]: binds
binding [9]: binds
binding [10]: binds
binding [11]: binds
binding [12]: binds
binding [13]: binds
B2: M-CSFRGD variant 4.24, purified soluble, non-glycosylated (designed binder)
chain: B1 chain
modifications: N-glycans removed with Endo HF (non-glycosylated)
notes: not shown: FLAG tag at the N-terminus of the cloning site (pPIC9K); 6xHis tag at the C-terminus of the cloning site
